± gives the standard deviation of the averaged measurements. This is a selection; strong and weak results do not stand in their true shares. Most values lie at the level of the controls, where differences are scatter.

Protein sequences, listed by entry. Tags and fused reporters are not part of them. Lines headed by an entry give the natural chain unless they say otherwise; changes in a name come on top.
UniProt Q9NWT6: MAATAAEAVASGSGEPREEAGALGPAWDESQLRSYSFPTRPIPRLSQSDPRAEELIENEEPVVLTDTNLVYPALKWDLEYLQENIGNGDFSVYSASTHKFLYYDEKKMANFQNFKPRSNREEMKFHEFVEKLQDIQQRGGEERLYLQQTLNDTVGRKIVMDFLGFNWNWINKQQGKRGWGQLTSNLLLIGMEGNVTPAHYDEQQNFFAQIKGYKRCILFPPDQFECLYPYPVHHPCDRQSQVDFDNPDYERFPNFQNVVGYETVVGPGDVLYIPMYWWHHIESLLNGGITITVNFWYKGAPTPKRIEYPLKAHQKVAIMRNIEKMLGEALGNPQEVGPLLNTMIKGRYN
UniProt Q9P000, whole entry: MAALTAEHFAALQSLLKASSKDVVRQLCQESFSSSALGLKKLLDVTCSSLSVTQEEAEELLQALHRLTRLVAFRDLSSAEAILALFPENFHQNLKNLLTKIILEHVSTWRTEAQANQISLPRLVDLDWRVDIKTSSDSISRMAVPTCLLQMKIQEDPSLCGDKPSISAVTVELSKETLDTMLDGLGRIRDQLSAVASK
UniProt Q9NRX1: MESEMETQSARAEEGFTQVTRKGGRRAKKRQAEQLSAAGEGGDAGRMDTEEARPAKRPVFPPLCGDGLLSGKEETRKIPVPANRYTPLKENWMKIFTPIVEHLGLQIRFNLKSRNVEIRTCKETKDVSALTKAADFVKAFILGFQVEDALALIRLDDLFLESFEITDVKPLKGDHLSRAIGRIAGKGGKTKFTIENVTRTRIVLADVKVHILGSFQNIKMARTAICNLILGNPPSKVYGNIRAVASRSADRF
UniProt Q9NUQ8: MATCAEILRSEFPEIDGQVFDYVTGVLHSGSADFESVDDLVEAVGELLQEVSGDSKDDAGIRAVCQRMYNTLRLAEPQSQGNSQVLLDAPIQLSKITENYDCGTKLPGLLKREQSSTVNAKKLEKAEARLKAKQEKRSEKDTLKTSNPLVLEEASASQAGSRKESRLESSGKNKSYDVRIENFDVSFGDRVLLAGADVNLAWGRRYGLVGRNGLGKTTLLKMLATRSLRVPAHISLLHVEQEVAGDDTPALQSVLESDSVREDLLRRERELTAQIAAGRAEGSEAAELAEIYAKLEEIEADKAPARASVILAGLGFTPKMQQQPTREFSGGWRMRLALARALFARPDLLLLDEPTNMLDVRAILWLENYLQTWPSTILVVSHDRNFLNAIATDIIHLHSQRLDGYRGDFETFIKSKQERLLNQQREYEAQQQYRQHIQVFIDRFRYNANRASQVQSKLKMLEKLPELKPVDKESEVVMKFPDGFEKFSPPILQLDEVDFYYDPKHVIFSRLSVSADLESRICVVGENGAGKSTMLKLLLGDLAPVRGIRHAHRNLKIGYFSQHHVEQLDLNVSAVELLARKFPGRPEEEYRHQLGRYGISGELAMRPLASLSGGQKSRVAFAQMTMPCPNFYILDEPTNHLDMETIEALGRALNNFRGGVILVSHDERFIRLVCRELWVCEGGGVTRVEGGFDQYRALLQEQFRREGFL
UniProt Q9NRR5, whole entry: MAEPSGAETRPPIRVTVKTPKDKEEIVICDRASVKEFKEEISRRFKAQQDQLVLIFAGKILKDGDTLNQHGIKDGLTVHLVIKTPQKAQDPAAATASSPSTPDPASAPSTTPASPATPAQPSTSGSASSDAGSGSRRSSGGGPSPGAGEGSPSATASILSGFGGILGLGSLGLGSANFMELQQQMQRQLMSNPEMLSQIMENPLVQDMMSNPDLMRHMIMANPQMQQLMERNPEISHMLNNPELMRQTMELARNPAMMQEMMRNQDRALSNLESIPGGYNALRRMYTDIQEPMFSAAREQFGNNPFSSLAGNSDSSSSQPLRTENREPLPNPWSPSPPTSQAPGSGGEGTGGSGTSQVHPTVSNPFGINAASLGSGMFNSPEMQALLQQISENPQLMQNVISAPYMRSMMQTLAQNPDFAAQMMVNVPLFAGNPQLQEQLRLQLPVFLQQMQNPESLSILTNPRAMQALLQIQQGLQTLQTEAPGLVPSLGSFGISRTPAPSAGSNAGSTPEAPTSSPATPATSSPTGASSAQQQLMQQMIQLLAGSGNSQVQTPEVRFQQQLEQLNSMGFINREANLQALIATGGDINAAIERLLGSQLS
UniProt Q9NXV6: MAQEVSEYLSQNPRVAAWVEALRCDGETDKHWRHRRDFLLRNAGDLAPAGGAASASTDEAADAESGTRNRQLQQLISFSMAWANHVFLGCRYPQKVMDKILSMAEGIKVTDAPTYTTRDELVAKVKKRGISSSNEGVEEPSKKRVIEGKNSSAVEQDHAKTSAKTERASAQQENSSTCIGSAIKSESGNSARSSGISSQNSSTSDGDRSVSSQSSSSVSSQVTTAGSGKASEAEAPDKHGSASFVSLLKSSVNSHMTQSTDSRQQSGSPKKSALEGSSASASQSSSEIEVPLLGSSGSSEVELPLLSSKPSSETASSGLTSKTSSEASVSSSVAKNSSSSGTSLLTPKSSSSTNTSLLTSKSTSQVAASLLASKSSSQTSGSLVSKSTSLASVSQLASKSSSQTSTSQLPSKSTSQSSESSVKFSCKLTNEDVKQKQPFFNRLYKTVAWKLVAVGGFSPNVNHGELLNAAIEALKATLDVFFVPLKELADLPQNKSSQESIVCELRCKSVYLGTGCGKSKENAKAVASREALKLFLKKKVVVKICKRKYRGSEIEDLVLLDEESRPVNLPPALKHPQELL
UniProt Q9NVE7: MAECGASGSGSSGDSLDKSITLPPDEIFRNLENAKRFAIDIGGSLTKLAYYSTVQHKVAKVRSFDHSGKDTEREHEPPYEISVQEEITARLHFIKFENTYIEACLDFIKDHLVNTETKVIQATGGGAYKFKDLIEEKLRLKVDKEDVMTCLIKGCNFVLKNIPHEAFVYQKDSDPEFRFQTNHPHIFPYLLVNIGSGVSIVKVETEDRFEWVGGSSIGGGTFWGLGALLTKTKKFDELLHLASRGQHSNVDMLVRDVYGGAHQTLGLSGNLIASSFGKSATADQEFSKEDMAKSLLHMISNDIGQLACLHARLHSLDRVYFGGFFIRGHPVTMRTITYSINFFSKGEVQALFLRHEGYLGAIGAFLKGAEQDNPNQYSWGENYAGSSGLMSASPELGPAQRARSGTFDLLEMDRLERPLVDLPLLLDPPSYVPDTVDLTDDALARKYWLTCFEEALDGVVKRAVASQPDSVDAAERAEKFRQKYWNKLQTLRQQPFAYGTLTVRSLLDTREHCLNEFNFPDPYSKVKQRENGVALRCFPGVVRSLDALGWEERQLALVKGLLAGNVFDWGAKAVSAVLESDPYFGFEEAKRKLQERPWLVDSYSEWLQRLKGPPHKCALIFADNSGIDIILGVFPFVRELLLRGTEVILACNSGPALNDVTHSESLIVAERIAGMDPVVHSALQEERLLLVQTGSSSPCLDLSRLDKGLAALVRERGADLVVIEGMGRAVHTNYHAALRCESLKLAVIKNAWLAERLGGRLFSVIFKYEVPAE
UniProt Q9NWV8, whole entry: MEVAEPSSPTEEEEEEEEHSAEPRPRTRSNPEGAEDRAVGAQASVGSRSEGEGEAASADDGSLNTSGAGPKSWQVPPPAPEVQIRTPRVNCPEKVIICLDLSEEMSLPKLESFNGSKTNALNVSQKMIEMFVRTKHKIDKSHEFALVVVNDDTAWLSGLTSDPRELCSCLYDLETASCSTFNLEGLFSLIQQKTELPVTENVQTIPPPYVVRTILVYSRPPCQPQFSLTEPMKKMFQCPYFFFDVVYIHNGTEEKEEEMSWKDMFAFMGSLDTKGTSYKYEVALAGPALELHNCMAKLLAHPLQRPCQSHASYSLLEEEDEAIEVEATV
UniProt Q9P215: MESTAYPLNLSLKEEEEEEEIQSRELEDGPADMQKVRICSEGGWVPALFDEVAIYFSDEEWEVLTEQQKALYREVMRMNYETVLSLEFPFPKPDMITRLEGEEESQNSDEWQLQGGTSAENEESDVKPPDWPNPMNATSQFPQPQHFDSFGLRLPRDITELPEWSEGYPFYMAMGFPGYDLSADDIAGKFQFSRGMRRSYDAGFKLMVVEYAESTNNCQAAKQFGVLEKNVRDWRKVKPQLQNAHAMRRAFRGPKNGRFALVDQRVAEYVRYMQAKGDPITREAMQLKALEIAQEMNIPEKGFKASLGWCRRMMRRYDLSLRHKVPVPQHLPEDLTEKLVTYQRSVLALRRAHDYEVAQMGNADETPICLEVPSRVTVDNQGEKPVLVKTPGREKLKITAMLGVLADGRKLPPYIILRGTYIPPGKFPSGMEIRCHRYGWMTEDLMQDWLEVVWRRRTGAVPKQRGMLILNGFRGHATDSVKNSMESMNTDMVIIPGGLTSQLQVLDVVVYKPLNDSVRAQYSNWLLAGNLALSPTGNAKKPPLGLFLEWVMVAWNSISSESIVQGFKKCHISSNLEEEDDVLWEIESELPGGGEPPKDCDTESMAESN
UniProt Q9NTJ3, whole entry: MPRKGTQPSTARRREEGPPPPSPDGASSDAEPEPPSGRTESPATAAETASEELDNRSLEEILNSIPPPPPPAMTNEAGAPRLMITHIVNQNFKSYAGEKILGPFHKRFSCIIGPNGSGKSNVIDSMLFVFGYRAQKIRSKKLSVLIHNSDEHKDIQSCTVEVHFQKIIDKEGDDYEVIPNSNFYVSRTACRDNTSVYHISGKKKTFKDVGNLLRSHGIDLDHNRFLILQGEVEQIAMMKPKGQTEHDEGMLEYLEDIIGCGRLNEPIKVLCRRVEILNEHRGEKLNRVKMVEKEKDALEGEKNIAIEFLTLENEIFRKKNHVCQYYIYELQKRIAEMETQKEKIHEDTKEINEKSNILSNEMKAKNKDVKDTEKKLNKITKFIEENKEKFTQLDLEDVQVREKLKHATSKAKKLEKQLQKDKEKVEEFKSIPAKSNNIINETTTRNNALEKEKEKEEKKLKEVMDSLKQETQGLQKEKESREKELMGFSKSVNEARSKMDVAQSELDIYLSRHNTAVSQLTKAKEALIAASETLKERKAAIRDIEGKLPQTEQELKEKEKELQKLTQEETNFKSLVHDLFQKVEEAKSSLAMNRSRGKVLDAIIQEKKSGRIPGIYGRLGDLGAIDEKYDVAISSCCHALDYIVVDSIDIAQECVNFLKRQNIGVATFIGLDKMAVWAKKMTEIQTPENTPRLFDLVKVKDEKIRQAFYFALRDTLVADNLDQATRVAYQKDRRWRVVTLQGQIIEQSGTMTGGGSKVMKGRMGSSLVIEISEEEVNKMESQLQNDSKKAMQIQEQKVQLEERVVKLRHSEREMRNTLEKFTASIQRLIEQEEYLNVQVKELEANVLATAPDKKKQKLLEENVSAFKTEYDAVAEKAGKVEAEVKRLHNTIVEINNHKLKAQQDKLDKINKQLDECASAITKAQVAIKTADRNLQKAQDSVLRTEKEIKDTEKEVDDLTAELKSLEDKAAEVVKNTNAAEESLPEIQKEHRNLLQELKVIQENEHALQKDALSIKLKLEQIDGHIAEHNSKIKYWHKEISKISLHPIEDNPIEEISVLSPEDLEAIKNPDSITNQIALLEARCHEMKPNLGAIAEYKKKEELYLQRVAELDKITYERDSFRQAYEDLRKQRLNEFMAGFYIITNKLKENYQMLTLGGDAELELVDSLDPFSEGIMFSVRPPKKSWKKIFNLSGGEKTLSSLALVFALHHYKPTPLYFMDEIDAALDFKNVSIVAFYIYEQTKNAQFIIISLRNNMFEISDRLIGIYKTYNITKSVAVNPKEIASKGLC
UniProt Q9UBB9: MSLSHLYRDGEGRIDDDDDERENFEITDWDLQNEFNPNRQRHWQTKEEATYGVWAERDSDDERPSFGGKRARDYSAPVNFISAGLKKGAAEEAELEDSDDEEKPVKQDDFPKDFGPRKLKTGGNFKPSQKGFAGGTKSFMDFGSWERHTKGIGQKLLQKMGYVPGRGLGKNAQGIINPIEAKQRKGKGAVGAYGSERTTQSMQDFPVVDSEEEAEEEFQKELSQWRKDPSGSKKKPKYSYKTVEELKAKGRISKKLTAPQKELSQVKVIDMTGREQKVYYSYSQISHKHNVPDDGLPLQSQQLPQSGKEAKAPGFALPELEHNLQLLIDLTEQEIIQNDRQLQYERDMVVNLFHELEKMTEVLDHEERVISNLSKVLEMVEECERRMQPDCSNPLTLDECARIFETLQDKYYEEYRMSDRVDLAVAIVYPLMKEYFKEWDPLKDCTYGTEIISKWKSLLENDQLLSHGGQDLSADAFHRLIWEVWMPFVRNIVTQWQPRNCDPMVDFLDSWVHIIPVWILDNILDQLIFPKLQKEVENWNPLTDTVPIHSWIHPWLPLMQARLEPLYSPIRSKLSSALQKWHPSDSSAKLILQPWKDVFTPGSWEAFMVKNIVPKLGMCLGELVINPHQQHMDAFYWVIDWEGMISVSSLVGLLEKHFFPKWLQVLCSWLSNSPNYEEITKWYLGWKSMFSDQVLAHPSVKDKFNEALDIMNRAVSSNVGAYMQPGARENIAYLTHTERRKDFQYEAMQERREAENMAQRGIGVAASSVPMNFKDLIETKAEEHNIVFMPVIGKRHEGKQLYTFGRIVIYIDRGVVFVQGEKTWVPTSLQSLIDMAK

Compound in one test: Nc1ncnc2c1ncn2[C@@H]1O[C@H](COP(=O)(O)OP(=O)(O)NP(=O)(O)O)[C@@H](O)[C@H]1O [adenylyl imidodiphosphate]
The test can be described thus: NP40-soluble protein abundance relative to vehicle (solubility fold change) (ratio); higher = more soluble protein in presence of AMP-PNP. The following applies: concentration: 0.1mM. Put shortly: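 Eight concentrations, 0.1 to 10 mM, were tested on Jurkat crude lysate for 10 min at room temperature and then 3 min at 37 °C, in three independent experiments. The lysate was solubilised with 0.8% NP40 and benzonase, ultracentrifuged, and the supernatant TMT-labelled for LC-MS/MS. Each value is the fold change against the detergent-processed vehicle in its own replicate, from vsn-normalised intensities.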
Take HIF1AN (UniProt Q9NWT6): the NP40-soluble protein abundance was found to be 1.01 ± 0.025.

As to MIOS (UniProt Q9NXC5), the NP40-soluble protein abundance amounted to 1.02 ± 0.023.

On to COMMD9 (UniProt Q9P000), for which the NP40-soluble protein abundance turned out to be 0.999 ± 0.02.

Take UniProt Q9NRX1 and related entries: the NP40-soluble protein abundance is 0.995 ± 0.021.

As for TMEM9B (UniProt Q9NQ34), the NP40-soluble protein abundance worked out at 1 ± 0.03.

On to TDP1 (UniProt Q9NUW8), for which the NP40-soluble protein abundance was found to be 1.015 ± 0.0095.

On to PFDN4 (UniProt Q9NQP4), for which the NP40-soluble protein abundance is 0.984 ± 0.085.

As to ABCF3 (UniProt Q9NUQ8), the NP40-soluble protein abundance turned out to be 1.04 ± 0.028.

For CISD1 (UniProt Q9NZ45), the NP40-soluble protein abundance is 0.9898 ± 0.0051.

UniProt Q9NQH7 and related entries: the NP40-soluble protein abundance worked out at 1.05 ± 0.023.

Regarding NSMCE4A (UniProt Q9NXX6), the NP40-soluble protein abundance came out at 0.991 ± 0.026.

For the target UBQLN4 (UniProt Q9NRR5), the NP40-soluble protein abundance was found to be 0.9882 ± 0.0061.

For UniProt Q9NUP7, the NP40-soluble protein abundance was 1 ± 0.04.

On to CDKN2AIP (UniProt Q9NXV6), for which the NP40-soluble protein abundance amounted to 0.974 ± 0.02.

On to PANK4 (UniProt Q9NVE7), for which the NP40-soluble protein abundance stood at 1.06 ± 0.051.

As to WDR70 (UniProt Q9NW82), the NP40-soluble protein abundance stood at 1.02 ± 0.014.

Consider UniProt Q9UBH6 and related entries, for which the NP40-soluble protein abundance was 1.042 ± 0.0034.

Regarding UniProt Q9NWV8, the NP40-soluble protein abundance is 1 ± 0.03.

CHST12 (UniProt Q9NRB3): the NP40-soluble protein abundance amounted to 0.991 ± 0.016.

Regarding UniProt Q9UBK8 and related entries, the NP40-soluble protein abundance worked out at 0.97 ± 0.029.

In the case of SMYD2 (UniProt Q9NRG4), the NP40-soluble protein abundance was found to be 0.982 ± 0.034.

For the target UniProt Q9NYJ8, the NP40-soluble protein abundance worked out at 0.911 ± 0.079.

With IRAK4 (UniProt Q9NWZ3), the NP40-soluble protein abundance came to 0.9869 ± 0.0036.

As to GSKIP (UniProt Q9P0R6), the NP40-soluble protein abundance stood at 0.998 ± 0.055.

With POGK (UniProt Q9P215), the NP40-soluble protein abundance was found to be 0.996 ± 0.038.

For UniProt Q9NPL8, the NP40-soluble protein abundance was determined as 0.957 ± 0.014.

UniProt Q9NQW7-3: the NP40-soluble protein abundance is 1.03 ± 0.04.

Regarding MRPL40 (UniProt Q9NQ50), the NP40-soluble protein abundance turned out to be 1 ± 0.032.

Regarding ASF1B (UniProt Q9NVP2), the NP40-soluble protein abundance is 0.975 ± 0.023.

As for SACM1L (UniProt Q9NTJ5), the NP40-soluble protein abundance is 1.03 ± 0.068.

In the case of CWC15 (UniProt Q9P013), the NP40-soluble protein abundance stood at 0.997 ± 0.054.

Regarding SMC4 (UniProt Q9NTJ3), the NP40-soluble protein abundance is 0.991 ± 0.011.

For UniProt Q9NQG7 and related entries, the NP40-soluble protein abundance was found to be 1.02 ± 0.037.

As for RBM27 (UniProt Q9P2N5), the NP40-soluble protein abundance came to 0.995 ± 0.014.

For the target RERE (UniProt Q9P2R6), the NP40-soluble protein abundance turned out to be 1.025 ± 0.0044.

Take UniProt Q9P0W2 and related entries: the NP40-soluble protein abundance is 0.997 ± 0.051.

Turning to TFIP11 (UniProt Q9UBB9), the NP40-soluble protein abundance came out at 1.027 ± 0.0025.

With UniProt Q9NSG2 and related entries, the NP40-soluble protein abundance is 0.997 ± 0.01.

The same test, now with this note: concentration: 0.5mM.
Take HIF1AN (UniProt Q9NWT6): the NP40-soluble protein abundance worked out at 1.01 ± 0.018.

With MIOS (UniProt Q9NXC5), the NP40-soluble protein abundance worked out at 0.992 ± 0.028.

For COMMD9 (UniProt Q9P000), the NP40-soluble protein abundance worked out at 1.02 ± 0.024.

Regarding UniProt Q9NRX1 and related entries, the NP40-soluble protein abundance is 1.03 ± 0.057.

In the case of TMEM9B (UniProt Q9NQ34), the NP40-soluble protein abundance is 0.992 ± 0.046.

Turning to TDP1 (UniProt Q9NUW8), the NP40-soluble protein abundance was 1.01 ± 0.016.

Turning to PFDN4 (UniProt Q9NQP4), the NP40-soluble protein abundance was found to be 1.02 ± 0.036.

As for ABCF3 (UniProt Q9NUQ8), the NP40-soluble protein abundance turned out to be 0.997 ± 0.014.

In the case of CISD1 (UniProt Q9NZ45), the NP40-soluble protein abundance was 1.04 ± 0.025.

Turning to UniProt Q9NQH7 and related entries, the NP40-soluble protein abundance was determined as 1.02 ± 0.018.

For NSMCE4A (UniProt Q9NXX6), the NP40-soluble protein abundance stood at 0.988 ± 0.062.

On to UBQLN4 (UniProt Q9NRR5), for which the NP40-soluble protein abundance is 1.01 ± 0.016.

Turning to UniProt Q9NUP7, the NP40-soluble protein abundance was found to be 0.988 ± 0.051.

CDKN2AIP (UniProt Q9NXV6): the NP40-soluble protein abundance stood at 1.01 ± 0.02.

In the case of PANK4 (UniProt Q9NVE7), the NP40-soluble protein abundance was determined as 1 ± 0.052.

In the case of WDR70 (UniProt Q9NW82), the NP40-soluble protein abundance was 1.03 ± 0.0064.

Take UniProt Q9UBH6 and related entries: the NP40-soluble protein abundance came to 1.036 ± 0.0018.

In the case of UniProt Q9NWV8, the NP40-soluble protein abundance was 0.983 ± 0.012.

Consider CHST12 (UniProt Q9NRB3), for which the NP40-soluble protein abundance came out at 1.01 ± 0.0081.

As for UniProt Q9UBK8 and related entries, the NP40-soluble protein abundance was found to be 0.974 ± 0.066.

For the target SMYD2 (UniProt Q9NRG4), the NP40-soluble protein abundance came out at 0.986 ± 0.034.

With UniProt Q9NYJ8, the NP40-soluble protein abundance was 0.91 ± 0.076.

On to IRAK4 (UniProt Q9NWZ3), for which the NP40-soluble protein abundance amounted to 0.9791 ± 0.0094.

Turning to GSKIP (UniProt Q9P0R6), the NP40-soluble protein abundance amounted to 0.9501 ± 0.003.

For POGK (UniProt Q9P215), the NP40-soluble protein abundance turned out to be 1.02 ± 0.017.

Turning to UniProt Q9NPL8, the NP40-soluble protein abundance turned out to be 0.967 ± 0.024.

Regarding UniProt Q9NQW7-3, the NP40-soluble protein abundance came to 1 ± 0.028.

For the target MRPL40 (UniProt Q9NQ50), the NP40-soluble protein abundance was found to be 0.982 ± 0.044.

For ASF1B (UniProt Q9NVP2), the NP40-soluble protein abundance worked out at 0.977 ± 0.084.

Turning to SACM1L (UniProt Q9NTJ5), the NP40-soluble protein abundance stood at 0.99 ± 0.053.

With CWC15 (UniProt Q9P013), the NP40-soluble protein abundance came to 1.07 ± 0.084.

For the target SMC4 (UniProt Q9NTJ3), the NP40-soluble protein abundance worked out at 1 ± 0.032.

UniProt Q9NQG7 and related entries: the NP40-soluble protein abundance was 0.9919 ± 0.0018.

As for RBM27 (UniProt Q9P2N5), the NP40-soluble protein abundance was found to be 1.04 ± 0.053.

Take RERE (UniProt Q9P2R6): the NP40-soluble protein abundance is 1.038 ± 0.01.

As to UniProt Q9P0W2 and related entries, the NP40-soluble protein abundance stood at 0.973 ± 0.039.

Regarding TFIP11 (UniProt Q9UBB9), the NP40-soluble protein abundance came to 1 ± 0.031.

UniProt Q9NSG2 and related entries: the NP40-soluble protein abundance is 0.978 ± 0.024.

(Values after the supplement of paper PMC6411743.)
